Test results as given in PMC12561425.
No constants are given. Whether binding was seen depends on the method and setting. Some results given as binding are weak or reduced against the parent protein; the word gives no strength.

Amino acid sequences for entries named in this document (tags omitted).
UniProt P16220: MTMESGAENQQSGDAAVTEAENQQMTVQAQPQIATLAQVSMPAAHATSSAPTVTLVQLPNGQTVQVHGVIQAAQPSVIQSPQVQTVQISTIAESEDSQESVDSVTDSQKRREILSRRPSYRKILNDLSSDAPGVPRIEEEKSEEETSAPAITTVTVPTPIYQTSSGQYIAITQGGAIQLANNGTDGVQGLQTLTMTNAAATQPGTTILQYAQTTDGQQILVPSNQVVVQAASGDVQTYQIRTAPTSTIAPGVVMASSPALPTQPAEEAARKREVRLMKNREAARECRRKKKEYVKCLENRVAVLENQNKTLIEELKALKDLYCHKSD

Target: cyclic adenosine monophosphate (cAMP) response element-binding protein (CREB1/CREB) (human (endogenous in primary human keloid fibroblasts)) (UniProt P16220)
Experiment: native gel or EMSA; native PAGE (Tris-Glycine native running buffer pH 8.8) and western blot with a CREB1 antibody on total protein of hKFs lysed in nondenaturing lysis buffer; hKFs untreated or with hsa_circ_0026782 overexpressed, knocked out or rescued

cyclic adenosine monophosphate (cAMP) response element-binding protein (CREB1/CREB) (from UniProt P16220 1-327)
binding: binds
